PubChem BioAssay AID1259405, NCATS – 2018
The deposit covers about 50,000 reagents; below is a random part of them. Over the whole deposit, about 4,000 (8%) are marked active. 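Mouse siRNA library applied to hamster cells; one well for each siRNA.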

Aim: 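Silenced genes that increase secreted GFP made by CHO cells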 (primary screen)
Cell system: Chinese hamster CHO-K1 ovary cells with stable secreted eGFP expression
Knock-down reagent: single siRNA against mouse genes, 0.8 pmol siRNA per well (2 µl of 400 nM stock)
Timing: 3 days
Detection: 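Per-well intracellular GFP measured by laser scanning cytometry, plus viability from ATP luminescence, each relative to plate median of non-targeting control wells, in %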
Direction: GFP, % of control: higher = more GFP per well, higher productivity; viability (ATP), % of control: higher = more viable cells (more ATP)
Rule for the call: 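a knock-down is called active if GFP reaches 120% or more of non-targeting control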

The opening 2 entries, ahead of the listing:
Gene | PubChem SID | GFP, % of control | viability (ATP), % of control | activity call
Pecam1 (platelet/endothelial cell adhesion molecule 1) | SID363573310 | 55.1 | 74 | inactive
Pecam1 (platelet/endothelial cell adhesion molecule 1) | SID363588549 | 102 | 87.5 | inactive

The listing, from the first entry:
Gene | PubChem SID | GFP, % of control | viability (ATP), % of control | activity call
Pecam1 (platelet/endothelial cell adhesion molecule 1) | SID363573310 | 55.1 | 74 | inactive
Pecam1 (platelet/endothelial cell adhesion molecule 1) | SID363588549 | 102 | 87.5 | inactive
Dok7 (docking protein 7) | SID363542645 | 66.9 | 45.1 | inactive
Dok7 (docking protein 7) | SID363546162 | 83 | 79.6 | inactive
Dok7 (docking protein 7) | SID363547918 | 95.3 | 84.4 | inactive
Sytl3 (synaptotagmin-like 3) | SID363553733 | 42.2 | 41.2 | inactive
Sytl3 (synaptotagmin-like 3) | SID363561690 | 77.8 | 76.8 | inactive
Sytl3 (synaptotagmin-like 3) | SID363565428 | 58.9 | 73 | inactive
Meak7 (MTOR associated protein, eak-7 homolog) | SID363542314 | 87.1 | 52.8 | inactive
Meak7 (MTOR associated protein, eak-7 homolog) | SID363551805 | 77.2 | 65.1 | inactive
Meak7 (MTOR associated protein, eak-7 homolog) | SID363559410 | 68.4 | 79.1 | inactive
Prelid3b (PRELI domain containing 3B) | SID363543678 | 76.4 | 85 | inactive
Prelid3b (PRELI domain containing 3B) | SID363553171 | 65.1 | 46.3 | inactive
Prelid3b (PRELI domain containing 3B) | SID363559019 | 84.1 | 86.3 | inactive
Akap19 (A-kinase anchoring protein 19) | SID363540625 | 84.1 | 92 | inactive
Akap19 (A-kinase anchoring protein 19) | SID363543076 | 92.3 | 88.5 | inactive
Akap19 (A-kinase anchoring protein 19) | SID363552569 | 106 | 72.1 | inactive
Retsat (retinol saturase (all trans retinol 13,14 reductase)) | SID363547848 | 79.1 | 48 | inactive
Retsat (retinol saturase (all trans retinol 13,14 reductase)) | SID363558617 | 66.2 | 97.6 | inactive
Retsat (retinol saturase (all trans retinol 13,14 reductase)) | SID363560375 | 86.9 | 87.5 | inactive
Pdpk1 (3-phosphoinositide dependent protein kinase 1) | SID363570862 | 63.2 | 52.7 | inactive
Ppp1r13l (protein phosphatase 1, regulatory subunit 13 like) | SID363554025 | 99 | 60.9 | inactive
Ppp1r13l (protein phosphatase 1, regulatory subunit 13 like) | SID363561982 | 158 | 82 | active
Ppp1r13l (protein phosphatase 1, regulatory subunit 13 like) | SID363565720 | 91.1 | 83.1 | inactive
Dmtf1l (cyclin D binding myb like transcription factor 1 like) | SID363555253 | 52.9 | 39.5 | inactive
Dmtf1l (cyclin D binding myb like transcription factor 1 like) | SID363563914 | 48.2 | 41 | inactive
Dmtf1l (cyclin D binding myb like transcription factor 1 like) | SID363587460 | 77.6 | 82.4 | inactive
Stam2 | SID363573341 | 109 | 78 | inactive
Stam2 | SID363588580 | 105 | 91.4 | inactive
Aknaos (AT-hook transcription factor, opposite strand) | SID363552246 | 169 | 62 | active
Aknaos (AT-hook transcription factor, opposite strand) | SID363585382 | 99.3 | 109 | inactive
Aknaos (AT-hook transcription factor, opposite strand) | SID363585733 | 153 | 129 | active
Myo1e (myosin IE) | SID363572171 | 74.3 | 65.2 | inactive
Myo1e (myosin IE) | SID363573931 | 91.2 | 120 | inactive
